These are yes or no findings as the source states them, for the method shown. In cells and extracts the contact can be indirect. Some binding calls cover weakened binding; strength is not graded here. Where a sequence is shown, tags or fusion partners need not be part of it.
Molecular target: T1, TLR9, HA-tagged (UniProt Q9EQU3)
T1 sequence: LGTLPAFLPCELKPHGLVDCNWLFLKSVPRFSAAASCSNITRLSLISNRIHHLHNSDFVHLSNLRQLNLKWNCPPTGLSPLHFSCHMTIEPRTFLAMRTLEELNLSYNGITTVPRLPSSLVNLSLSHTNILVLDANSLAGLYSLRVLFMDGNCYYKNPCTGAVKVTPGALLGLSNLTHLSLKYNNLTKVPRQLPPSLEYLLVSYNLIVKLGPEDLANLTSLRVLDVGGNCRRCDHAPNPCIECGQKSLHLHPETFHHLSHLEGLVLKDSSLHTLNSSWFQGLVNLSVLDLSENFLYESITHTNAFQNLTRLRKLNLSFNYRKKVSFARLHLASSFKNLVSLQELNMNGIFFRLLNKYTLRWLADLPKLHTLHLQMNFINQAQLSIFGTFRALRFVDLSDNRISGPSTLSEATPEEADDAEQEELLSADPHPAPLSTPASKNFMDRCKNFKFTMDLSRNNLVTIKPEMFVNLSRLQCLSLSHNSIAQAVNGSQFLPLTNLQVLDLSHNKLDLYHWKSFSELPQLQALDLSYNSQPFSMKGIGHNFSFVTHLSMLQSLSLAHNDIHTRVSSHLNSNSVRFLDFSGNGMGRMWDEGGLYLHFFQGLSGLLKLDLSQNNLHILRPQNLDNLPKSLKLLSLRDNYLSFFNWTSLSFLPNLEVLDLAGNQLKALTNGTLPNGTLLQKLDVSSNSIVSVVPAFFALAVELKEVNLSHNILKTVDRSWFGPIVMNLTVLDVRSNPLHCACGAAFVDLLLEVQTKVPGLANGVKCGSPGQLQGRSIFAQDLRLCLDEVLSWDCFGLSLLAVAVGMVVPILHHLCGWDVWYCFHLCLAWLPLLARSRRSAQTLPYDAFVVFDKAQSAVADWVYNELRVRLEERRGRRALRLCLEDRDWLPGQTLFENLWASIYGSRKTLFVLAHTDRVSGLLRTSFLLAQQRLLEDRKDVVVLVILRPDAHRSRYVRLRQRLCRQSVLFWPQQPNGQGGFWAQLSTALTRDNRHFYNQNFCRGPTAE
Experiment: co-IP

- binding: binds
B1: Unc93b1^SKN (SKN to AAA at residues 282-284), 3xFLAG-tagged (protein, UniProt Q8VCW4 1-598)
chain: MEVEPPLYPVAGAAGPQGDEDRHGVPDGPEAPLDELVGAYPNYNEEEEERRYYRRKRLGVVKNVLAASTGVTLTYGVYLGLLQMQLILHYDETYREVKYGNMGLPDIDSKMLMGINVTPIAALLYTPVLIRFFGTKWMMFLAVGIYALFVSTNYWERYYTLVPSAVALGMAIVPLWASMGNYITRMSQKYYEYSHYKEQDEQGPQQRPPRGSHAPYLLVFQAIFYSFFHLSFACAQLPMIYFLNNYLYDLNHTLINVQSCGTKSQGILNGFNKTVLRTLPRAAALIVVESVLMAVAFLAMLMVLGLCGAAYRPTEEIDLRSVGWGNIFQLPFKHVRDFRLRHLVPFFIYSGFEVLFACTGFALGYGVCSMGLERLAYLLIAYSLGASASSVLGLLGLWLPRSVPLVAGAGLHLLLTLSLFFWAPAPRVLQHSWIFYFVAALWGVGSALNKTGLSTLLGILYEDKERQDFIFTIYHWWQAVAIFVVYLGSSLPMKAKLAVLLVTLVAAAASYLWMEQKLQQGLVPRQPRIPKPQHKVRGYRYLEEDNSDESDMEGEQGQGDCAEDEAPQAGPLGAEPAGPCRKPCPYEQALGGDGPEEQ

From article doi:10.1101/410092
